PubChem BioAssay AID743121, NCATS, 2013
Test: 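Partners whose loss is lethal together with topoisomerase I blockade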 (primary screen). Cell system: MDA-MB-231 cells, a human breast cancer line. Reagents: single siRNA against human genes, 20 nM siRNA (0.8 pmol per well). Time to read-out: 120 h (drug added 48 h after transfection, read 72 h later). Conditions: camptothecin 20 nM (about EC30) for 72 h; vehicle 0.1% DMSO in parallel plates. Measured: 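Cell viability by ATP luminescence (CellTiter-Glo) as % of non-targeting siRNA wells, and the log2 ratio of viability without drug over viability with camptothecin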. Scale: log2 vehicle/camptothecin viability: higher = stronger sensitisation to camptothecin. Hit rule: 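Active genes have an RSA gene-level p-value below 0.001, computed from the ratios of their separate siRNAs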.
The deposit covers about 26,000 reagents; shown is a part drawn at random. Of all reagents, 167 (0.63%) got an active call. 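Calls are per gene from RSA p-values that are not deposited; an individual active-marked siRNA can sensitise only weakly.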 Unmarked entries are inactive. Further read-outs or replicates are left out here.

What did the screen give for PRLR [SID164382907]?
log2 vehicle/camptothecin viability: 0.141

Which result is listed for PRLR [SID164382910]?
log2 vehicle/camptothecin viability: -0.306

Which result is listed for PRLR [SID164382911]?
log2 vehicle/camptothecin viability: 0.35

What is on record for PRLR [SID164382912]?
log2 vehicle/camptothecin viability: 0.0598

What did the screen give for SLC12A3 [SID164388546]?
log2 vehicle/camptothecin viability: 0.000907

How did the screen score SLC12A3 [SID164388550]?
log2 vehicle/camptothecin viability: 0.0441

For SLC12A3 [SID164388551], what does the deposit list?
log2 vehicle/camptothecin viability: 0.196

With SLC12A3 [SID164388552], how do the results read?
log2 vehicle/camptothecin viability: -0.546

2 consecutive entries already listed, quoted:
PRLR [SID164382912] → log2 vehicle/camptothecin viability: 0.0598
SLC12A3 [SID164388546] → log2 vehicle/camptothecin viability: 0.000907

The results go on:
What is on record for FSHB [SID164365403]?
log2 vehicle/camptothecin viability: -0.49

With FSHB [SID164365405], how do the results read?
log2 vehicle/camptothecin viability: -0.163

Which result is listed for FSHB [SID164365409]?
log2 vehicle/camptothecin viability: -0.258

What did the screen give for IQGAP1 [SID164400094]?
log2 vehicle/camptothecin viability: 0.0479

With IQGAP1 [SID164400095], what was measured?
log2 vehicle/camptothecin viability: -0.16

What did the screen give for IQGAP1 [SID164400097]?
log2 vehicle/camptothecin viability: -0.0822

How did the screen score IQGAP1 [SID164400099]?
log2 vehicle/camptothecin viability: -0.00576
